Reference: PubChem BioAssay AID743121 (NCATS, 2013)

Test: 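Genes whose silencing strengthens cell killing by camptothecin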 (primary screen)
Cells: MDA-MB-231 cells, a human breast cancer line
Knock-down reagent: single siRNA against human genes, 20 nM siRNA (0.8 pmol per well)
Time to read-out: 120 h (drug added 48 h after transfection, read 72 h later)
Conditions: camptothecin 20 nM (about EC30) for 72 h; vehicle 0.1% DMSO in parallel plates
Detection: 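Cell viability by ATP luminescence (CellTiter-Glo) as % of non-targeting siRNA wells, and the log2 ratio of viability without drug over viability with camptothecin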
Direction: log2 vehicle/camptothecin viability: higher = stronger sensitisation to camptothecin
Call rule: 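Each gene scored by redundant siRNA activity (RSA) over its individual siRNA ratios; a gene is called active at p < 0.001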
The whole screen tested about 26,000 reagents; this is a part drawn at random. 167 of them (0.63%) were called active. 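Calls are per gene from RSA p-values that are not deposited; an individual active-marked siRNA can sensitise only weakly.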 Reagents against one gene are numbered here. Not all columns of the deposit are shown.

| gene knocked down | reagent no. | log2 vehicle/camptothecin viability | Call |
| --- | --- | --- | --- |
| ABCG1 (GeneID 9619) | 1 | -0.872 | inactive |
| ABCG1 (GeneID 9619) | 2 | -0.142 | inactive |
| ABCG1 (GeneID 9619) | 3 | -0.211 | inactive |
| ABCG1 (GeneID 9619) | 4 | -0.406 | inactive |
| IL1B (GeneID 3553) | 1 | -0.406 | inactive |
| IL1B (GeneID 3553) | 2 | -0.186 | inactive |
| IL1B (GeneID 3553) | 3 | -0.389 | inactive |
| IL1B (GeneID 3553) | 4 | -0.464 | inactive |
| SOST (GeneID 50964) | 1 | -0.27 | inactive |
| SOST (GeneID 50964) | 2 | -0.0189 | inactive |
| SOST (GeneID 50964) | 3 | 1.11 | inactive |
| RARRES2 (GeneID 5919) | 1 | -0.109 | inactive |
| RARRES2 (GeneID 5919) | 2 | -0.151 | inactive |
| RARRES2 (GeneID 5919) | 3 | -0.341 | inactive |
| RARRES2 (GeneID 5919) | 4 | -0.0768 | inactive |
| PSMA4 (GeneID 5685) | 1 | -0.357 | inactive |
| PSMA4 (GeneID 5685) | 2 | -0.404 | inactive |
| PSMA4 (GeneID 5685) | 3 | -0.313 | inactive |
| PLXNB3 (GeneID 5365) | 1 | -0.307 | inactive |
| PLXNB3 (GeneID 5365) | 2 | -0.14 | inactive |
| PLXNB3 (GeneID 5365) | 3 | -0.375 | inactive |
| PLXNB3 (GeneID 5365) | 4 | 0.205 | inactive |
| SNUPN (GeneID 10073) | 1 | -0.157 | inactive |
| SNUPN (GeneID 10073) | 2 | 0.0632 | inactive |
| SNUPN (GeneID 10073) | 3 | 0.0363 | inactive |
| SNUPN (GeneID 10073) | 4 | 0.275 | inactive |
| TXN (GeneID 7295) | 1 | -0.472 | inactive |
| TXN (GeneID 7295) | 2 | -0.00107 | inactive |
| TXN (GeneID 7295) | 3 | 0.0588 | inactive |
| TXN (GeneID 7295) | 4 | -0.141 | inactive |
| CYP2D6 (GeneID 1565) | 1 | 0.0775 | inactive |
| CYP2D6 (GeneID 1565) | 2 | -0.103 | inactive |
| GRK2 (GeneID 156) | 1 | -0.0973 | inactive |
| GRK2 (GeneID 156) | 2 | -0.455 | inactive |
| GRK2 (GeneID 156) | 3 | -0.298 | inactive |
| GRK2 (GeneID 156) | 4 | 0.715 | inactive |
| NPR3 (GeneID 4883) | 1 | 1.02 | inactive |
| NPR3 (GeneID 4883) | 2 | -0.246 | inactive |
| NPR3 (GeneID 4883) | 3 | -0.293 | inactive |
| NPR3 (GeneID 4883) | 4 | -0.549 | inactive |
| CCR10 (GeneID 2826) | 1 | -0.369 | inactive |
| CCR10 (GeneID 2826) | 2 | -0.407 | inactive |
| CCR10 (GeneID 2826) | 3 | 0.205 | inactive |
| CCR10 (GeneID 2826) | 4 | -0.502 | inactive |
| TUBD1 (GeneID 51174) | 1 | 1.56 | inactive |
| TUBD1 (GeneID 51174) | 2 | -0.0288 | inactive |
| TUBD1 (GeneID 51174) | 3 | -0.0013 | inactive |
| TUBD1 (GeneID 51174) | 4 | -0.0526 | inactive |
| KISS1R (GeneID 84634) | 1 | -0.217 | inactive |
| KISS1R (GeneID 84634) | 2 | -0.193 | inactive |
| KISS1R (GeneID 84634) | 3 | -0.819 | inactive |
| KISS1R (GeneID 84634) | 4 | -0.441 | inactive |
| TAS2R3 (GeneID 50831) | 1 | -0.226 | inactive |
| TAS2R3 (GeneID 50831) | 2 | -0.0943 | inactive |
| TAS2R3 (GeneID 50831) | 3 | 0.0991 | inactive |
| TAS2R3 (GeneID 50831) | 4 | 0.16 | inactive |
| PLPP2 (GeneID 8612) | 1 | 0.324 | inactive |
| PLPP2 (GeneID 8612) | 2 | -0.072 | inactive |
| PLPP2 (GeneID 8612) | 3 | -0.176 | inactive |
| PLPP2 (GeneID 8612) | 4 | -0.259 | inactive |
| NID1 (GeneID 4811) | 1 | -0.151 | inactive |
| NID1 (GeneID 4811) | 2 | -0.246 | inactive |
| NID1 (GeneID 4811) | 3 | -0.162 | inactive |
| NID1 (GeneID 4811) | 4 | 0.0576 | inactive |
| FXYD5 (GeneID 53827) | 1 | -0.433 | inactive |
| FXYD5 (GeneID 53827) | 2 | -0.37 | inactive |
| FXYD5 (GeneID 53827) | 3 | -0.0239 | inactive |
| FXYD5 (GeneID 53827) | 4 | 0.451 | inactive |
| CYP4B1 (GeneID 1580) | 1 | -0.0459 | inactive |
| CYP4B1 (GeneID 1580) | 2 | -0.327 | inactive |
| CYP4B1 (GeneID 1580) | 3 | -0.0914 | inactive |
| PROP1 (GeneID 5626) | 1 | -0.435 | inactive |
| PROP1 (GeneID 5626) | 2 | -0.156 | inactive |
| PROP1 (GeneID 5626) | 3 | -0.263 | inactive |
| PROP1 (GeneID 5626) | 4 | -0.35 | inactive |
| MAPK8IP3 (GeneID 23162) | 1 | -0.472 | inactive |
| MAPK8IP3 (GeneID 23162) | 2 | 0.335 | inactive |
| MAPK8IP3 (GeneID 23162) | 3 | 0.011 | inactive |
| MAPK8IP3 (GeneID 23162) | 4 | -0.36 | inactive |
| VN1R2 (GeneID 317701) | 1 | -0.25 | inactive |
| VN1R2 (GeneID 317701) | 2 | -0.65 | inactive |
| VN1R2 (GeneID 317701) | 3 | -0.564 | inactive |
| VN1R2 (GeneID 317701) | 4 | -0.28 | inactive |
| PRSS38 (GeneID 339501) | 1 | -0.236 | inactive |
| PRSS38 (GeneID 339501) | 2 | 0.502 | inactive |
| PRSS38 (GeneID 339501) | 3 | -0.151 | inactive |
| PRSS38 (GeneID 339501) | 4 | -0.13 | inactive |

Quoted from the entries so far, 8 entries:
| gene knocked down | reagent no. | log2 vehicle/camptothecin viability | Call |
| --- | --- | --- | --- |
| NID1 (GeneID 4811) | 4 | 0.0576 | inactive |
| FXYD5 (GeneID 53827) | 1 | -0.433 | inactive |
| FXYD5 (GeneID 53827) | 2 | -0.37 | inactive |
| FXYD5 (GeneID 53827) | 3 | -0.0239 | inactive |
| FXYD5 (GeneID 53827) | 4 | 0.451 | inactive |
| CYP4B1 (GeneID 1580) | 1 | -0.0459 | inactive |
| CYP4B1 (GeneID 1580) | 2 | -0.327 | inactive |
| CYP4B1 (GeneID 1580) | 3 | -0.0914 | inactive |
